Results taken from patent US20210236541A1, “IODOPHOR COMPOSITION WITH IMPROVED STABILITY IN THE PRESENCE OF ORGANIC MATERIAL” (priority 2014, published 2021).
For at least one compound, name, drawing or mass did not settle the structure.

Experiments:
E. coli ATCC 25922 = assay: Nebulisation simulation, kill efficiency on inoculated bandage; assay type: cell-based; settings: nebulised, 15 minutes; Levofloxacin and Polymyxin B at all concentrations, Gentamycin 0.1 mg and 1 mg
P. aeruginosa = assay: as above; assay type: cell-based; settings: nebulised, concentration of 10 mg

Which results are given for C[C@H]1COc2c(N3CCN(C)CC3)c(F)cc3c(=O)c(C(=O)O)cn1c23 [Levofloxacin]?
performance of the novel iodophor relative to the labelled antibiotic (E. coli ATCC 25922): equivalent performance; killing efficiency (P. aeruginosa): efficient at killing
